The results in this text go back to PubChem BioAssay AID330 (DTP/NCI, 2004).

The assay has as its system P388 leukemia ip, CD2F1 mice, survival T/C. Briefly: NCI In Vivo Anticancer Drug Screen. Data for tumor model P388 Leukemia (intraperitoneal) in CD2F1 (CDF1) mice. The conditions noted are these: T/C endpoint: median survival time, higher T/C = longer survival.

The list is a part of this screen's results and no random one: it is rich in T/C values a quarter to a half above the control, in often repeated tests (any T/C) and in doses without a T/C. Further doses and runs are listed elsewhere. T/C: endpoint of the treated group in % of that of the vehicle group. Some entries give survivors of the animals treated and no T/C: the source files T/C as zero there, which appears to mark a toxic dose or a test without result, not a measured value. Some survivor counts are full or nearly so, which does not show that the dose was tolerated: the source hardly ever lists a survival T/C far under the control, and the zero likely stands for such cases as well. Counts of survivors are from the toxicity check (mostly the fifth day) where no day follows; animals may have died later. Schedules are NCI's codes, taken here to give the interval after Q, in days (D) or hours (H), and the number of doses after X. Some structures stand for samples that the source files as different forms (salt, stereo form or complex); doses refer to the form tested. Some entries were tested several times; the values are given in rising order. Where survival is the endpoint, the PubChem record calls one and a half times the control and up active, and a quarter to a half above the control has no call in these data; cut-offs in other NCI protocols can differ.

For `COc1ccc2c(c1OC(C)=O)-c1cc(O)cc3c1C(C2)N(C(=O)CN(CCCl)CCCl)CC3` (stereo not given), the T/C (dose: 3.12 mg/kg/injection, schedule: Q04DX003 (ip), vehicle: saline) was 125 % of control; the T/C (dose: 3.13 mg/kg/injection, schedule: Q04DX003 (ip), vehicle: distilled water + Tween-80) is 126 % of control; the T/C (dose: 6.25 mg/kg/injection, schedule: Q04DX003 (ip), vehicle: DMSO) was 143 % of control; the T/C (dose: 6.25 mg/kg/injection, schedule: Q04DX003 (ip), vehicle: distilled water + Tween-80) was 134 % of control; the T/C (dose: 6.25 mg/kg/injection, schedule: Q04DX003 (ip), vehicle: saline) is 131 % of control; the T/C (dose: 12.5 mg/kg/injection, schedule: Q04DX003 (ip), vehicle: DMSO) is 142 % of control. In addition, the T/C is, setting by setting: (dose: 12.5 mg/kg/injection, schedule: Q04DX003 (ip), vehicle: distilled water + Tween-80) 136 % of control; (dose: 12.5 mg/kg/injection, schedule: Q04DX003 (ip), vehicle: saline) 140 % of control; (dose: 25.0 mg/kg/injection, schedule: Q04DX003 (ip), vehicle: DMSO) 144 % of control; (dose: 25.0 mg/kg/injection, schedule: Q04DX003 (ip), vehicle: saline) 149 % of control; (dose: 50.0 mg/kg/injection, schedule: Q04DX003 (ip), vehicle: DMSO) 130 % of control. Also, the survivor count was 6 of 6 (dose: 50.0 mg/kg/injection, schedule: Q04DX003 (ip), vehicle: distilled water + Tween-80); 3 of 6 (dose: 100.0 mg/kg/injection, schedule: Q04DX003 (ip), vehicle: DMSO); 1 of 6 (dose: 100.0 mg/kg/injection, schedule: Q04DX003 (ip), vehicle: distilled water + Tween-80).

For the molecule `C=CCCCCCCCCCSC(=N)N`, the survivor count is recorded as 1 of 6 (dose: 50.0 mg/kg/injection, schedule: Q01DX009 (ip), vehicle: Klucel (hydroxypropylcellulose) (HPC)); 0 of 6 (dose: 100.0 mg/kg/injection, schedule: Q01DX009 (ip), vehicle: Klucel (hydroxypropylcellulose) (HPC)); 0 of 6 (dose: 200.0 mg/kg/injection, schedule: Q01DX009 (ip), vehicle: Klucel (hydroxypropylcellulose) (HPC)).

For `CCc1cccc(NC(=O)Sc2ccc(O)cc2)c1`, the survivor count (dose: 200.0 mg/kg/injection, schedule: Q01DX009 (ip), vehicle: saline with Tween-80) was 5 of 6.

As for `CN(C)c1ccc(-c2nn(C)c3nc(=O)n(C)c(=O)c-3[n+]2[O-])cc1`, the survivor count is 3 of 6 (dose: 12.5 mg/kg/injection, schedule: Q01DX001 (ip), vehicle: saline); 1 of 6 and 2 of 6 (dose: 25.0 mg/kg/injection, schedule: Q01DX001 (ip), vehicle: saline); 0 of 6 (dose: 50.0 mg/kg/injection, schedule: Q01DX001 (ip), vehicle: saline); 0 of 6 (dose: 100.0 mg/kg/injection, schedule: Q01DX001 (ip), vehicle: saline); 1 of 6 (dose: 200.0 mg/kg/injection, schedule: Q01DX001 (ip), vehicle: saline); 0 of 6 (dose: 400.0 mg/kg/injection, schedule: Q01DX001 (ip), vehicle: saline).

On to `O=C1CCCCCCCCCC/C1=N/O`, for which the survivor count (dose: 400.0 mg/kg/injection, schedule: Q01DX009 (ip), vehicle: saline with Tween-80) is on record as 2 of 6.
